# Assay results from the supplement of paper PMC8728848.
# Some of the results follow.
# B1: Epa21 (Candida glabrata) (protein)
# chain: MGSSHHHHHHSSGLVPRGSHMASTPNIESHPQGCSPVDTSGIKPGLKMDLYRFPITPPGTGCWSWDWLTVTPDFPRSGYWKWPKIAEVDGVVGPLHLDSGHPTCDPLTSVLPHGFNYLQSITTTNFTMVLHGYFVPKQSGKYTFEFKADDALLLNLGAGNAFSCCDYNNSQYNQGEYLAYAIWSKNNQTATLYLEKGIYYPIRVFYHNRCCGAYMDVVYYFNDSPIPNRDFSGLLFSIPDSDSCDANI
# Columns and labels:
# Test in all cases: glycan array binding signal (z-score within array); higher = stronger binding
# Conditions in all cases: glycan notation: IUPAC condensed, linker removed
# Fuc(a1-2)Gal = target: Fuc(a1-2)Gal
# How it was run: (§1)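 Arrays were curated from the Consortium for Functional Glycomics database, 3228 in total, and kept only where the protein sequence was available. Binding is expressed as a within-array Z-score. This score was averaged across arrays of the same protein sequence at different concentrations or buffers and across linkers, and negative values can be read as non-binding.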
# Fuc(a1-2)Gal(b1-3)GalNAc = target: Fuc(a1-2)Gal(b1-3)GalNAc
# How it was run: as §1
# [1] = target: Fuc(a1-2)Gal(b1-3)GalNAc(a1-3)[Fuc(a1-2)]Gal(b1-4)Glc
# How it was run: as §1
# [2] = target: Fuc(a1-2)Gal(b1-3)GalNAc(a1-3)[Fuc(a1-2)]Gal(b1-4)GlcNAc
# How it was run: as §1
# [3] = target: Fuc(a1-2)Gal(b1-3)GalNAc(b1-3)Gal
# How it was run: as §1
# [4] = target: Fuc(a1-2)Gal(b1-3)GalNAc(b1-3)Gal(a1-4)Gal(b1-4)Glc
# How it was run: as §1
# [5] = target: Fuc(a1-2)Gal(b1-3)GalNAc(b1-4)[Neu5Ac(a2-3)]Gal(b1-4)Glc
# How it was run: as §1
# Fuc(a1-2)Gal(b1-3)GlcNAc = target: Fuc(a1-2)Gal(b1-3)GlcNAc
# How it was run: as §1
# [6] = target: Fuc(a1-2)Gal(b1-3)GlcNAc(b1-2)Man(a1-3)[Fuc(a1-2)Gal(b1-3)GlcNAc(b1-2)Man(a1-6)]Man(b1-4)GlcNAc(b1-4)GlcNAc
# How it was run: as §1
# [7] = target: Fuc(a1-2)Gal(b1-3)GlcNAc(b1-2)Man(a1-3)[Fuc(a1-2)Gal(b1-3)GlcNAc(b1-2)Man(a1-6)]Man(b1-4)GlcNAc(b1-4)[Fuc(a1-6)]GlcNAc
# How it was run: as §1
# [8] = target: Fuc(a1-2)Gal(b1-3)GlcNAc(b1-3)Gal(b1-4)Glc
# How it was run: as §1
# [9] = target: Fuc(a1-2)Gal(b1-3)GlcNAc(b1-3)GalNAc
# How it was run: as §1
# [10] = target: Fuc(a1-2)Gal(b1-3)GlcNAc(b1-3)[Fuc(a1-2)Gal(b1-3)GlcNAc(b1-6)]GalNAc
# How it was run: as §1
# [11] = target: Fuc(a1-2)Gal(b1-3)GlcNAc(b1-3)[Gal(b1-4)GlcNAc(b1-6)]Gal(b1-4)Glc
# How it was run: as §1
# [12] = target: Fuc(a1-2)Gal(b1-3)GlcNAc(b1-3)[Neu5Ac(a2-6)Gal(b1-4)GlcNAc(b1-6)]Gal(b1-4)Glc
# How it was run: as §1
# [13] = target: Fuc(a1-2)Gal(b1-3)GlcNAc6S
# How it was run: as §1
# [14] = target: Fuc(a1-2)Gal(b1-3)[Fuc(a1-4)]GlcNAc
# How it was run: as §1
# [15] = target: Fuc(a1-2)Gal(b1-3)[Fuc(a1-4)]GlcNAc(b1-2)Man(a1-3)[Fuc(a1-2)Gal(b1-3)[Fuc(a1-4)]GlcNAc(b1-2)Man(a1-3)]Man(b1-4)GlcNAc(b1-4)GlcNAc
# How it was run: as §1
# [16] = target: Fuc(a1-2)Gal(b1-3)[Fuc(a1-4)]GlcNAc(b1-2)Man(a1-3)[Fuc(a1-2)Gal(b1-3)[Fuc(a1-4)]GlcNAc(b1-2)Man(a1-6)]Man(b1-4)GlcNAc(b1-4)[Fuc(a1-6)]GlcNAc(b1-4)[Fuc(a1-6)]GlcNAc
# How it was run: as §1
# [17] = target: Fuc(a1-2)Gal(b1-3)[Fuc(a1-4)]GlcNAc(b1-3)[Fuc(a1-3)[Gal(b1-4)]GlcNAc(b1-6)]Gal(b1-4)Glc
# How it was run: as §1
# [18] = target: Fuc(a1-2)Gal(b1-3)[Fuc(a1-4)]GlcNAc(b1-3)[Gal(b1-4)GlcNAc(b1-6)]Gal(b1-4)Glc
# How it was run: as §1
# [19] = target: Fuc(a1-2)Gal(b1-4)Fuc(a1-3)]GlcNAc(b1-2)Man(a1-3)[Fuc(a1-2)Gal(b1-4)[Fuc(a1-3)]GlcNAc(b1-2)Man(a1-6)]Man(b1-4)GlcNAc(b1-4)GlcNAc
# How it was run: as §1
# Fuc(a1-2)Gal(b1-4)Glc = target: Fuc(a1-2)Gal(b1-4)Glc
# How it was run: as §1
# Fuc(a1-2)Gal(b1-4)Glc6S = target: Fuc(a1-2)Gal(b1-4)Glc6S
# How it was run: as §1
# Fuc(a1-2)Gal(b1-4)GlcNAc = target: Fuc(a1-2)Gal(b1-4)GlcNAc
# How it was run: as §1
# [20] = target: Fuc(a1-2)Gal(b1-4)GlcNAc(b1-2)Man
# How it was run: as §1
# [21] = target: Fuc(a1-2)Gal(b1-4)GlcNAc(b1-2)Man(a1-3)[Fuc(a1-2)Gal(b1-4)GlcNAc(b1-2)Man(a1-6)]Man(b1-4)GlcNAc(b1-4)GlcNAc
# How it was run: as §1
# [22] = target: Fuc(a1-2)Gal(b1-4)GlcNAc(b1-2)Man(a1-3)[Fuc(a1-2)Gal(b1-4)GlcNAc(b1-2)Man(a1-6)]Man(b1-4)GlcNAc(b1-4)[Fuc(a1-6)]GlcNAc
# How it was run: as §1
# [23] = target: Fuc(a1-2)Gal(b1-4)GlcNAc(b1-2)[Fuc(a1-2)Gal(b1-4)GlcNAc(b1-4)]Man(a1-3)[Fuc(a1-2)Gal(b1-4)GlcNAc(b1-2)Man(a1-6)]Man(b1-4)GlcNAc(b1-4)GlcNAc
# How it was run: as §1
# [24] = target: Fuc(a1-2)Gal(b1-4)GlcNAc(b1-3)Gal(b1-4)GlcNAc
# How it was run: as §1
# [25] = target: Fuc(a1-2)Gal(b1-4)GlcNAc(b1-3)Gal(b1-4)GlcNAc(b1-2)Man(a1-3)[Fuc(a1-2)Gal(b1-4)GlcNAc(b1-3)Gal(b1-4)GlcNAc(b1-2)Man(a1-6)]Man(b1-4)GlcNAc(b1-4)GlcNAc
# How it was run: as §1
# [26] = target: Fuc(a1-2)Gal(b1-4)GlcNAc(b1-3)Gal(b1-4)GlcNAc(b1-3)Gal(b1-4)GlcNAc
# How it was run: as §1
# [27] = target: Fuc(a1-2)Gal(b1-4)GlcNAc(b1-3)GalNAc
# How it was run: as §1
# [28] = target: Fuc(a1-2)Gal(b1-4)GlcNAc(b1-3)[Fuc(a1-2)Gal(b1-4)GlcNAc(b1-6)]GalNAc
# How it was run: as §1
# [29] = target: Fuc(a1-2)Gal(b1-4)GlcNAc(b1-3)[Fuc(a1-3)[Gal(b1-4)]GlcNAc(b1-6)]Gal(b1-4)Glc
# How it was run: as §1
# [30] = target: Fuc(a1-2)Gal(b1-4)GlcNAc(b1-6)GalNAc
# How it was run: as §1
# [31] = target: Fuc(a1-2)Gal(b1-4)GlcNAc6S
# How it was run: as §1
binder,measurement,setting,value
B1,glycan array binding signal (z-score),Fuc(a1-2)Gal,-0.249
same,glycan array binding signal (z-score),Fuc(a1-2)Gal(b1-3)GalNAc,-0.67
same,glycan array binding signal (z-score),[1],-0.699
same,glycan array binding signal (z-score),[2],-0.512
same,glycan array binding signal (z-score),[3],0.656
same,glycan array binding signal (z-score),[4],-0.005
same,glycan array binding signal (z-score),[5],-0.391
same,glycan array binding signal (z-score),Fuc(a1-2)Gal(b1-3)GlcNAc,-0.348
same,glycan array binding signal (z-score),[6],0.416
same,glycan array binding signal (z-score),[7],0.061
same,glycan array binding signal (z-score),[8],-0.405
same,glycan array binding signal (z-score),[9],-0.112
same,glycan array binding signal (z-score),[10],0.797
same,glycan array binding signal (z-score),[11],-0.436
same,glycan array binding signal (z-score),[12],-0.865
same,glycan array binding signal (z-score),[13],-0.453
same,glycan array binding signal (z-score),[14],-0.63
same,glycan array binding signal (z-score),[15],0.073
same,glycan array binding signal (z-score),[16],-0.251
same,glycan array binding signal (z-score),[17],-0.838
same,glycan array binding signal (z-score),[18],-0.368
same,glycan array binding signal (z-score),[19],2.49
same,glycan array binding signal (z-score),Fuc(a1-2)Gal(b1-4)Glc,-0.605
same,glycan array binding signal (z-score),Fuc(a1-2)Gal(b1-4)Glc6S,0.752
same,glycan array binding signal (z-score),Fuc(a1-2)Gal(b1-4)GlcNAc,-0.158
same,glycan array binding signal (z-score),[20],0.069
same,glycan array binding signal (z-score),[21],-0.489
same,glycan array binding signal (z-score),[22],-0.477
same,glycan array binding signal (z-score),[23],-0.763
same,glycan array binding signal (z-score),[24],-0.829
same,glycan array binding signal (z-score),[25],-0.006
same,glycan array binding signal (z-score),[26],-0.508
same,glycan array binding signal (z-score),[27],-0.404
same,glycan array binding signal (z-score),[28],-0.296
same,glycan array binding signal (z-score),[29],-0.678
same,glycan array binding signal (z-score),[30],1.15
same,glycan array binding signal (z-score),[31],0.055

# Looked up one by one from the entries so far, two records:
binder,measurement,setting,value
B1,glycan array binding signal (z-score),[28],-0.296
same,glycan array binding signal (z-score),[23],-0.763
